One series concerns thrombin (Homo sapiens). The experiment in a line: inhibition of the protein. To be noted: 3' four 18-atom ethylene glycol spacers and thiol coupled to N-methoxysuccinyl-Ala-Ala-Pro-Val-chloromethyl ketone; no detectable inhibition at 650 nM; purified native protein; single-stranded DNA; variant of DNA-17.
Series [1] addresses T1, neutrophil elastase (HNE) (Homo sapiens) (UniProt P08246).
T1 sequence (looked up, limits assumed): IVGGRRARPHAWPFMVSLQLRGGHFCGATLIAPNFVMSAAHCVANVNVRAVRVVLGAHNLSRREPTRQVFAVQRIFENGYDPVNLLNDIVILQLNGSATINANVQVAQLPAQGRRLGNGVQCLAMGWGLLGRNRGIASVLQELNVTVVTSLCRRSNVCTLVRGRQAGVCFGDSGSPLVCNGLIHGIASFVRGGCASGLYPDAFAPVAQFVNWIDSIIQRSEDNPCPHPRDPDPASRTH
Nature of the series: binding assay. To be noted: CITED from US application 08/199,507; purified native protein; single-stranded DNA.

For some assays here: Negatives hold for the conditions tested. For some assays here: Construct, isoform or probe ends are uncertain for at least one entry. For some assays here: Protein sequences can lack the tags named with them.

Turning to “TAGCGATACTGCGTGGGTTGGGGCGGGTAGGGCCAGCAGTCTCGTGCGGTACTTGAGCA [DNA-17 3'-end peptide conjugate]”, in the series with thrombin (Homo sapiens), the “functional effect of the aptamer” value is recorded as “not active”. In general, Kd refers to the concentration at which binding is half-saturated. “TAGCGATACTGCGTGGGTTGGGGCGGGTAGGGCCAGCAGTCTCGTGCGGTACTTGAGCA [DNA-17]” registered a Kd in series [1] of 15 nM.

The record behind these values is patent US5683867, “Systematic evolution of ligands by exponential enrichment: blended SELEX” (NeXstar Pharmaceuticals, Inc.).
